Results on one compound are retold here after publication PMC3687523 (Biochemical pharmacology, 2013).

The test system of the experiment is rat brain CYP2D.
[1] abbreviates: 40 μg i.c.v. propafenone, 30 mg/kg s.c. codeine.

On to `CCCNCC(O)COc1ccccc1C(=O)CCc1ccccc1` (stereo not drawn) [propafenone], for which, under “40 μg i.c.v. propafenone 5 min before 30 mg/kg s.c. codeine, at 20, 30 and 40 min”, the “percentage of maximal analgesic effect (%MPE) after codeine, compared to vehicle pretreatment” value is recorded as “significantly lower”. In addition, the “AUC of analgesia after morphine, compared to vehicle pretreatment” value (40 μg i.c.v. propafenone, 5 mg/kg s.c. morphine, all time periods) was “did not result in significantly different”. Moreover, the “%MPE after morphine, compared to vehicle pretreatment” value (40 μg i.c.v. propafenone, 5 mg/kg s.c. morphine, all time points) was “did not result in significantly different %MPE”. Moreover, under setting [1], the “area under the analgesia-time curve (AUC) 0-30 min after codeine, compared to vehicle pretreatment” value is on record as “significantly lower”; the “area under the analgesia-time curve (AUC) 0-120 min after codeine, compared to vehicle pretreatment” value is “but not for (H) 60-120 min or 0-120 min”; the “area under the analgesia-time curve (AUC) 60-120 min after codeine, compared to vehicle pretreatment” value was “Neither inhibitor resulted in lower AUC”.
